Library screen at single concentrations

By UniProt entry, the sequences of proteins in these tests, tags left out. Residues count along the entry.
UniProt I6X8D2, whole entry: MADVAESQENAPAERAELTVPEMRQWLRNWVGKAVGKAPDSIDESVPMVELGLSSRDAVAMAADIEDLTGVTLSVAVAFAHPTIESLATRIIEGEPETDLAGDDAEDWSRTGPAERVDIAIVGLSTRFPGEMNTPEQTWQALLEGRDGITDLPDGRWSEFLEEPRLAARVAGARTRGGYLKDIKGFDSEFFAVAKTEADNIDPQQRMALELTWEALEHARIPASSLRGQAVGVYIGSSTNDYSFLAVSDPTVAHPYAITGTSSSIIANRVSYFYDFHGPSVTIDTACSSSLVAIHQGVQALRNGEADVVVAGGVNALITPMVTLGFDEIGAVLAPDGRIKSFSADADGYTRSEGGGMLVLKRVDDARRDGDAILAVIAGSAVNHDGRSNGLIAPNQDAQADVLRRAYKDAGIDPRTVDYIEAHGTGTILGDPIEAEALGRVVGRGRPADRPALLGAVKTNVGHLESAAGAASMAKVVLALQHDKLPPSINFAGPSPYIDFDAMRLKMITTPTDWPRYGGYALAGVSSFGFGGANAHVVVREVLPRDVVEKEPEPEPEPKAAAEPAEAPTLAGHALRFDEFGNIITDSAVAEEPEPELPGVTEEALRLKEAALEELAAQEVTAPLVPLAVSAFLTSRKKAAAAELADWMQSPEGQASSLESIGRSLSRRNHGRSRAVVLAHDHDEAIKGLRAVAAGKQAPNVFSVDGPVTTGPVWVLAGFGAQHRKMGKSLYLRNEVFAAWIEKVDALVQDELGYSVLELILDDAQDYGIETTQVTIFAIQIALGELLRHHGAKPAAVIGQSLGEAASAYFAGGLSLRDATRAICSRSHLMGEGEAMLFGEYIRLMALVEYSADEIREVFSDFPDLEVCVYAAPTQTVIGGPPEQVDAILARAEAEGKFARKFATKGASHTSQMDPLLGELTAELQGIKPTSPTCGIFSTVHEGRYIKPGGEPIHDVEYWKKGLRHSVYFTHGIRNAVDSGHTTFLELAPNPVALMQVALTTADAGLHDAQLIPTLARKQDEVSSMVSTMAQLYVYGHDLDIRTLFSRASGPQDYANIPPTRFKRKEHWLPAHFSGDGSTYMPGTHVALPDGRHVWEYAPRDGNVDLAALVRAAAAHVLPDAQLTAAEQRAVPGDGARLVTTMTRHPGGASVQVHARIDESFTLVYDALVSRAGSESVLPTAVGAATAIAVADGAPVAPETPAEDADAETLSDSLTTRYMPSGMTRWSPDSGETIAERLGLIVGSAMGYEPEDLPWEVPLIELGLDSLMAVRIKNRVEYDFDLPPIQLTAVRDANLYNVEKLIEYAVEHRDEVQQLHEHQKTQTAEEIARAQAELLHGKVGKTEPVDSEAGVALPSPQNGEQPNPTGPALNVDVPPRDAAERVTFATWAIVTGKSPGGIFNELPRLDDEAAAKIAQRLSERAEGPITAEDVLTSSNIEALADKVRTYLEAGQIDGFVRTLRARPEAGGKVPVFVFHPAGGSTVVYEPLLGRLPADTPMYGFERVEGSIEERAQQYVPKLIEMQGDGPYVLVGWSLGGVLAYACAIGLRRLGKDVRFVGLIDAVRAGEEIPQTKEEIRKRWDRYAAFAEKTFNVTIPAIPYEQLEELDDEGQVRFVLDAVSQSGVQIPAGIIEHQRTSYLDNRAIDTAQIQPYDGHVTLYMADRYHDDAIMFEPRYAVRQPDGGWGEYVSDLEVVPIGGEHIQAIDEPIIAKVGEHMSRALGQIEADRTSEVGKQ
UniProt A4I591, 1-473: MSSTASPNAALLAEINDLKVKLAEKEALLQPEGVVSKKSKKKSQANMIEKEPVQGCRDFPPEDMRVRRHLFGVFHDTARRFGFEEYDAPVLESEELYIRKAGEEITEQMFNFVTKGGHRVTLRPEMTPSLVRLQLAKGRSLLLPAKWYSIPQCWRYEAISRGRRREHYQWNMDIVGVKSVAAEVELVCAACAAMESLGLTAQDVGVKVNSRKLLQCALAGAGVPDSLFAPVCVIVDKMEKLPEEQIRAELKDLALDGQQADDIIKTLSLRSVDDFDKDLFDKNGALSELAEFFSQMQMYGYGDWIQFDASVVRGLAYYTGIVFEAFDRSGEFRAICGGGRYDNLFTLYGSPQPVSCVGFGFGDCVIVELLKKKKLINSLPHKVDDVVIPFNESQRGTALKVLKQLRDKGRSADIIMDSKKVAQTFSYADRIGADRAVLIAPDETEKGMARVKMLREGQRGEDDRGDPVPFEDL
UniProt P9WPC5, whole entry: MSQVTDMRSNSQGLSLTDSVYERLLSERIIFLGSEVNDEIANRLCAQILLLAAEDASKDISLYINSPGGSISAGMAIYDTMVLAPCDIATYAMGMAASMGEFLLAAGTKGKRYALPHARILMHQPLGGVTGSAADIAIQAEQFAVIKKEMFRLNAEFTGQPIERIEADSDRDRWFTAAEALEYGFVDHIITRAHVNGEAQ
UniProt P9WPC3, whole entry partner: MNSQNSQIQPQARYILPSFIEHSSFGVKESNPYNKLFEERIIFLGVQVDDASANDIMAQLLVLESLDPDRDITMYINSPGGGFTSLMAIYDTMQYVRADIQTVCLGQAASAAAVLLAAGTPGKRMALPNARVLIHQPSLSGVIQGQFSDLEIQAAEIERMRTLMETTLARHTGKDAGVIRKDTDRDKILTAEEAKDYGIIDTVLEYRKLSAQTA
UniProt P9WNZ1, whole entry: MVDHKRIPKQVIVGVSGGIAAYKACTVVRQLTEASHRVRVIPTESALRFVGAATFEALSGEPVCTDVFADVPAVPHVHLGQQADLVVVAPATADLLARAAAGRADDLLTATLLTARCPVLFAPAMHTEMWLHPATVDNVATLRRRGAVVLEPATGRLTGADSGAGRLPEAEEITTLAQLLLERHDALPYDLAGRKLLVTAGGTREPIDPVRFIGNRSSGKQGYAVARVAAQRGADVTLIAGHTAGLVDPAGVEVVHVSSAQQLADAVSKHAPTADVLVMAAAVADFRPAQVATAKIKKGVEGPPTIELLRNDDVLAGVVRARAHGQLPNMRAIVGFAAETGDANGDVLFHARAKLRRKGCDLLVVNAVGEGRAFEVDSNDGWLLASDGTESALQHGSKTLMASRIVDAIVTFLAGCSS

Source: ChEMBL document CHEMBL3988442, “University of Dundee, Small-Polar-MMV Screening Library” (2021).

A: 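Enzyme assay of the thioesterase domain of polyketide synthase 13; the read-out is not stated. Target: Polyketide synthase Pks13, Mycobacterium tuberculosis (UniProt I6X8D2). Tested at 30 µM. The record gives no direction; the compounds picked for IC50 retests had high values, so higher reads as stronger inhibition. About 67,000 compounds were tested under these conditions; 0.46% (about 300) showed 50% or more at least once.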
B: 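Enzyme assay of histidyl-tRNA synthetase; the read-out is not stated. Target: Histidine-tRNA ligase, Leishmania infantum (UniProt A4I591). Concentration: 30 µM. The record gives no direction; compounds that gave an IC50 in retests scored well above the rest, so higher reads as stronger inhibition. The assay is labelled LdHisRS but filed under L. infantum. Of about 69,000 compounds tested this way, about 410 (0.6%) reached 50% or more in at least one test.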
C: 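Cell assay of Leishmania donovani living inside macrophages; the read-out is not stated. Tested at 30 µM. Direction is inferred from retests: higher values go with stronger inhibition. Of about 69,000 compounds tested this way, about 1,000 (1.5%) reached 50% or more in at least one test.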
D: 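ClpP1P2, Mycobacterium tuberculosis (UniProt P9WPC5 and UniProt P9WPC3). Protease assay of ClpP1P2, read by the AMC dye that it sets free. Tested at 50 µM. Higher reads as stronger inhibition, judged from the few compounds that gave an IC50. Most other retested compounds had strongly negative values. About 69,000 compounds were tested under these conditions; 0.015% (about 10) showed 50% or more at least once.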
E: 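Assay of Toxoplasma gondii numbers, read through their beta-galactosidase reporter with a colour substrate. Compounds at 10 µM. The record gives no direction; the compounds picked for IC50 retests had high values, so higher reads as fewer parasites. About 67,000 compounds were tested under these conditions; 0.38% (about 260) showed 50% or more at least once.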
F: 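Coenzyme A biosynthesis protein CoaBC, Mycobacterium tuberculosis (UniProt P9WNZ1). Enzyme assay of CoaBC with a phosphate dye (Biomol Green) read at 650 nm. Tested at 30 µM. Higher reads as stronger inhibition, judged from the few compounds that gave an IC50. Most strong results did not repeat in a second test. Of about 67,000 compounds tested this way, about 40 (0.06%) reached 50% or more in at least one test.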

Results are given as percent effect. How 0% and 100% were set is not recorded. Most values in the screen are low, and negative values occur. Compounds were drawn at random from those tested, without regard to their results. Two or more numbers in one place are separate tests of the same structure; such repeats can differ widely. A dash means the value is not listed here; it may have been measured.

compound	A	B	C	D	E	F
CCN(CC)C(=O)c1ccc(Cl)c(NC(=O)c2csnn2)c1	-24.31	11.19	-1.549	-4.646	2.727	2.469
COc1cccc(C(C(=O)O)N2CCCN(C3CCCC3)CC2)c1OC (centres unmarked)	17.6	6.061	-20.46	13.69	-6.409	-7.863
CNS(=O)(=O)CCNc1cc(C)nc2cc(C)nn12	24.81	14.29	12.57	0.6812	5.877	8.855
CCn1ccnc1C1CCCN(C(=O)c2sc(C)nc2C)C1 (centres unmarked)	-21.47	18.4	-1.945	-7.005	-12.17	-0.1206
Cc1ccc(CN2CCC3(CCCN3C(=O)C(C)C)CC2)o1	-22.85	13.46	9.843	11.24	-1.96	2.703
C=C(C)COc1ccccc1C(=O)N1CCC(C(=O)NCC)C1 (centres unmarked)	-18.21	20.98	14.64	0.06628	-18.02	-1.481
Cc1cccc(CN2C[C@@H]3OCCN(S(=O)(=O)N(C)C)[C@@H]3C2)n1	-42.58	15.79	-	4.036	-	6.131
COCCN1C(=O)CC[C@@H]2[C@@H]1CCN2S(=O)(=O)C1CC1	-12.96	11.71	-	-12.65	-	1.733
CCS(=O)(=O)N1CC[C@H](OC)[C@@H]1Cc1ccncc1	-12.08	12.03	-47.09	12.43	0.8069	11.83
O=C(O)C1(Oc2ccc3ccccc3c2)CCN(c2ncccn2)CC1	-9.996	15.2	1.186	-9.999	-3.406	3.016
CC(C)c1nccc([C@@H]2C[C@@H]3CCN(Cc4ccoc4)C[C@H]3O2)n1	-3.732	10.91	-	1.861	-	1.681
Cc1nc(CCCNC(=O)Nc2ccc(F)cc2F)n[nH]1	-2.425	11.9	24.84	1.635	-2.97	1.699
Cc1ccc(S(=O)(=O)Nc2ccc(=O)n(C)c2)cc1	-20.43	77.53	54.33	3.809	-	2.057
O=C(c1ccncn1)N1C[C@H]2CCC[C@@]2(COCC2CCOCC2)C1	-6.9	17.43	-	6.874	-	10.75
Cc1nc(C2CCCN(C(=O)C3=NN(C(C)C)C(=O)CC3)C2)no1 (centres unmarked)	-16.07	13.19	3.258	-7.509	-6.244	1.585
CCC(C(=O)N(C)C)N1CCC(c2nccn2Cc2cscn2)CC1 (centres unmarked)	-	16.8	-1.36	-12.02	1.298	2.051
Cc1nc(-c2ccccc2C)n(CC(=O)NC2CCCC2)n1	-26.14	0	-13.69	-0.8184	23.6	-0.9032
CC(NC(=O)N1CCC2(C1)OCCO2)c1ccc(F)cc1Cl (centres unmarked)	-32.02	15.49	10.79	1.979	0.863	-
Cc1cc(Cc2ccccc2C)cc(C2CCCNC2)n1 (centres unmarked)	-1.291	8.571	39.73	-18.09	-20.52	0.4854
CCOc1ccccc1OCCN(C)Cc1nccn1C	-33	14.58	-22.99	-5.26	9.638	2.644
Cc1c[nH]c(C(=O)N2C[C@H]3CC[C@@H]2CN(Cc2cscn2)C3)n1	-15.74	18.18	-	-5.448	-	2.554
CCS(=O)(=O)NC[C@]12COC[C@H]1CN(Cc1cccc(OC)c1)C2	-39.63	3.008	-	5.747	-	5.656
OC(c1cnn(-c2ccccc2)c1)C(F)(F)F (centres unmarked)	-40.9	5.181	2.383	1.021	2.295	1.911
CCCNC(=O)CN1CCC(NCc2c(C)nn(C)c2OC)CC1	-12.8	13.89	1.867	-5.502	-8.171	10.32
Cc1cncc(C(=O)N2CCC(Cn3cc(-c4ccsc4)nn3)CC2)c1	-9.239	15.38	15.8	-12.43	-1.5	-2.772
Cn1ncc2c1CCCN(C(=O)C1CC1)C2	-2.181	11.59	-8.099	23.4	-3.53	-1.577
CCCS(=O)(=O)N1C[C@@H]2COC[C@@H](Cc3nc(C)no3)[C@@H]2C1	-33.51	21.37	-	2.906	-	9.167
Cc1c[nH]nc1C1CCN(S(=O)(=O)N(C)C)C1 (centres unmarked)	-10.43	12	2.431	6.441	9.107	8.055
O=C(NCc1ccccc1OCCO)Nc1ccc2c(c1)CCC2	-17.31	13.89	23.84	-3.431	-6.072	8.73
Cc1nc(C(Cc2ccsc2)NC(=O)CN2CCOCC2)sc1C (centres unmarked)	-9.269	1.408	7.983	-16.33	1.854	1.726
O=S(=O)(C1CC1)N1CCC(Cn2cccn2)CC1	-34.76	11.11	10.02	4.816	-3.662	8.403
O=S(=O)(Cc1ccccc1)NCC1CCN(c2cnccn2)CC1	-0.527	8.738	-53.47	-17.43	-0.8869	-2.155
CC(C)C(C)N(C)Cc1nnc(-c2ccc(Br)s2)o1 (centres unmarked)	13.34	16.13	-4.107	-3.903	-0.5686	0.1212
COc1cccc2c1OCC(CNC(=O)Cc1csc(C(C)=O)c1)C2 (centres unmarked)	7.187	25	-6.445	-7.445	6.497	14.95
CC(C)C[C@H](NC(=O)c1cc(-c2cccn2C)n[nH]1)C(N)=O	-3.959	14	-13.41	8.737	-9.769	-0.495
Cc1ccc(N2CCCC3(COCCN(c4ncccn4)C3)C2)nn1 (centres unmarked)	-2.255	24.47	-	7.759	-	10.82
O=C(NCc1cccnc1N1CCc2ccccc2C1)c1cnc[nH]1	-13.76	18.57	25.21	-10.15	-9.738	-5.533
Cc1cnn(CC(C)NCc2cc(=O)n3cc(C)ccc3n2)c1 (centres unmarked)	-12.67	15	24.29	0.6822	3.837	0.319
O=C(c1cccc(S(=O)(=O)NCCc2ccccn2)c1)N1CCOCC1	-5.141	16.8	18.58	-2.839	-16.22	-2.774
CSc1ccccc1NC(=O)C1CN(C(=O)c2ccc3c(c2)OCO3)C1	-24.38	31.17	24.71	-4.615	4.211	-2.554
Cc1cccc(C)c1OCCNC(=O)NC(C)c1nncn1C (centres unmarked)	-15.53	5.333	9.268	11.39	1.122	-2.564
CN1CCc2[nH]cnc2C12CCN(C(=O)CCc1cccs1)CC2	-6.93	-5.128	-2.586 & 15.51	-7.874	-0.4837	0
CSC(C)(C)CNC(=O)NC1CCN(CC(F)F)CC1	-0.8078	-31.25	7.185	-6.024	9.07	2.893
COC(=O)c1ccc(C(=O)NCc2ccc(Br)cc2)cn1	-31.49	13.16	7.103	-4.375	-7.429	-6.048
Cc1ccc(S(=O)(=O)N2CCN(CCCO)CC2)s1	-3.519	22.34	55.51	11.38	-3.448	-5.387
Oc1cc(-c2ccsc2)nc(C2CCN(Cc3ccncc3)CC2)n1	2.359	7.092	8.808	-4.812	2.183	-0.6135
CC(NC(=O)NCc1ccoc1)c1ccc2c(c1)CCC(=O)N2 (centres unmarked)	-17.52	27.4	-4.141	4.057	5.929	3.133
Cc1n[nH]c(C2CN(C(=O)c3ccc(=O)n(C)c3)CCO2)n1 (centres unmarked)	-13.78	20	9.65	13.41	-1.634	-
Cc1noc(-c2cccnc2N(C)Cc2cscn2)n1	2.114	5.263	3.561	-12.84	-1.321	3.629
CC(CNS(=O)(=O)CCCC#N)c1ccsc1 (centres unmarked)	-31.95	23.94	25.66	6.15	3.996	7.78
Cc1ccccc1CS(=O)(=O)NCCCN1CCCC1	-19.87	6.061	-1.959	2.813	-38.51	-30.85
CC(=O)CSc1sc2c(O)cc(=O)[nH]c2c1C(N)=O	14.99	12.5	-21.8	-5.453	-2.622	3.418
CCn1ncc(Nc2[nH]cnc3nc(C)nc2-3)c1C	-38.41	19.54	-7.482	15.06	29.77	3.803
CC(Cn1cccn1)NCCCc1nc(-c2cccs2)no1 (centres unmarked)	-14.81	7.895	3.314	4.14	9.718	1.695
CNC(=O)C1CN(c2ccc(F)cc2)CCN1.Cl (centres unmarked)	-	-	-4.926	-	3.215	-

Some entries from above, unchanged:

compound,A,B,C,D,E,F
CC(NC(=O)N1CCC2(C1)OCCO2)c1ccc(F)cc1Cl (centres unmarked),-32.02,15.49,10.79,1.979,0.863,-
COc1cccc2c1OCC(CNC(=O)Cc1csc(C(C)=O)c1)C2 (centres unmarked),7.187,25,-6.445,-7.445,6.497,14.95
Cc1nc(CCCNC(=O)Nc2ccc(F)cc2F)n[nH]1,-2.425,11.9,24.84,1.635,-2.97,1.699
O=S(=O)(Cc1ccccc1)NCC1CCN(c2cnccn2)CC1,-0.527,8.738,-53.47,-17.43,-0.8869,-2.155
CC(CNS(=O)(=O)CCCC#N)c1ccsc1 (centres unmarked),-31.95,23.94,25.66,6.15,3.996,7.78
Cc1cccc(CN2C[C@@H]3OCCN(S(=O)(=O)N(C)C)[C@@H]3C2)n1,-42.58,15.79,-,4.036,-,6.131